The record followed here is PMC4183798.

Changes are numbered by the printed parent chain. These are yes or no findings as the source states them, for the method shown. Binding seen in cells or lysates may run through a third protein. Binding calls can cover weak binding; strength is not graded here. Where a sequence is shown, tags or fusion partners need not be part of it.

The target in assay [1] is T1, Fc-tagged full-length αDAG co-transfected with LARGE (rat) (UniProt F1M8K0).
T1 sequence (chain, glycans added by LARGE (mucin region)): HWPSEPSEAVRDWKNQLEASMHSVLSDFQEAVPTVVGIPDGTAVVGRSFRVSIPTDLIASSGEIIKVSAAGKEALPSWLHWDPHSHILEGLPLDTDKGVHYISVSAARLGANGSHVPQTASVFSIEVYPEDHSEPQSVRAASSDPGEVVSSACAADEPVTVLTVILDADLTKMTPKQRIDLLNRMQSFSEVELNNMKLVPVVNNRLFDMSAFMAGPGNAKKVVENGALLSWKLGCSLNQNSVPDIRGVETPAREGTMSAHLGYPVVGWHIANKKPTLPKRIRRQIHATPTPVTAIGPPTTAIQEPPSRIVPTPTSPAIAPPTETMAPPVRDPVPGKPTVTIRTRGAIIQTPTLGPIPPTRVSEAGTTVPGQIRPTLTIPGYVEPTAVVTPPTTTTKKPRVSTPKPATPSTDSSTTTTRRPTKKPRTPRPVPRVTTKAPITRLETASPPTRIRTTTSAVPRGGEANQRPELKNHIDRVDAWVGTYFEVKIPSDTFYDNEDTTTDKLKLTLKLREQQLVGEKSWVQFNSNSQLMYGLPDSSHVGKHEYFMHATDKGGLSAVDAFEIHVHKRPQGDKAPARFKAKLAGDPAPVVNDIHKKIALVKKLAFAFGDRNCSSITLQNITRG
The assay can be described thus: pull-down; preformed complex of Fc-tagged αDAG with Nrxn1α(+SS#4) (Fig. 6C, lane 3, lower panels); how the complex was formed is not stated.

Assay [2] concerns the target T1, Fc-tagged full-length αDAG co-transfected with LARGE (rat). The assay can be described thus: pull-down; Fc-tagged αDAG variants secreted from HEK293 cells (with or without LARGE) on protein A beads; mouse brain lysate; immunoblot for α-Nrxn; only the target purified. (In general: Immunoblotting shows a protein as a band on a membrane.)
The target in assay [3] is T2, Fc-αDAG-T315A/T317A (rat) (UniProt F1M8K0).
T2 sequence (chain, glycans added by LARGE): T1 sequence (chain, glycans added by LARGE (mucin region)) with T288A, T290A
Described as above.

Regarding “Soluble, non-tagged extracellular domains of Nrxn1α (+SS#4) (rat) (domain or fragment)”, the binding entry in assay [1] was “binds”. As to α-Nrxn from mouse brain (receptor), the binding result in assay [2] and in assay [3] was “binds” throughout.
